{"source": "patent US10899639B2", "about": "“Composition and method for inhibiting microbial adhesion on surfaces” (SOLENIS TECHNOLOGIES, L.P., priority 2017, dated 2021)", "assay": "foaming potential, shaken capped graduated cylinder test", "type": "physicochemical", "settings": "100 mL test solution in 250 mL cylinder, 30 ppm active LAS", "data": [{"substance": "sodium dodecylbenzene sulfonate [Biosoft D-40]", "values": [{"measurement": "volume of the foam", "setting": "0 min after 40 inversions", "result": 140}, {"measurement": "volume of the foam", "setting": "1 min after 40 inversions", "result": 137}, {"measurement": "volume of the foam", "setting": "3 min after 40 inversions", "result": 136}]}]}
